# No constants are given. Whether binding was seen depends on the method and setting. For some assays here: Binding seen in cells or lysates may run through a third protein. Some binding calls cover weakened binding; strength is not graded here.
# B1: outer layer protein P8 of cystovirus ɸ6 (in virion-derived particles) (natural protein)
# chain: MLLPVVARAAVPAIESAIAATPGLVSRIAAAIGSKVSPSAILAAVKSNPVVAGLTLAQIGSTGYDAYQQLLENHPEVAEMLKDLSFKADEIQPDFIGNLGQYREELELVEDAARFVGGMSNLIRLRQALELDIKYYGLKMQLNDMGYRS
# Legend:
# [1] = molecular target: T1, major capsid protein P1 of cystovirus ɸ6 (in virion-derived particles) (cystovirus ɸ6) (UniProt P11126); experiment: co-sedimentation
# T1 sequence: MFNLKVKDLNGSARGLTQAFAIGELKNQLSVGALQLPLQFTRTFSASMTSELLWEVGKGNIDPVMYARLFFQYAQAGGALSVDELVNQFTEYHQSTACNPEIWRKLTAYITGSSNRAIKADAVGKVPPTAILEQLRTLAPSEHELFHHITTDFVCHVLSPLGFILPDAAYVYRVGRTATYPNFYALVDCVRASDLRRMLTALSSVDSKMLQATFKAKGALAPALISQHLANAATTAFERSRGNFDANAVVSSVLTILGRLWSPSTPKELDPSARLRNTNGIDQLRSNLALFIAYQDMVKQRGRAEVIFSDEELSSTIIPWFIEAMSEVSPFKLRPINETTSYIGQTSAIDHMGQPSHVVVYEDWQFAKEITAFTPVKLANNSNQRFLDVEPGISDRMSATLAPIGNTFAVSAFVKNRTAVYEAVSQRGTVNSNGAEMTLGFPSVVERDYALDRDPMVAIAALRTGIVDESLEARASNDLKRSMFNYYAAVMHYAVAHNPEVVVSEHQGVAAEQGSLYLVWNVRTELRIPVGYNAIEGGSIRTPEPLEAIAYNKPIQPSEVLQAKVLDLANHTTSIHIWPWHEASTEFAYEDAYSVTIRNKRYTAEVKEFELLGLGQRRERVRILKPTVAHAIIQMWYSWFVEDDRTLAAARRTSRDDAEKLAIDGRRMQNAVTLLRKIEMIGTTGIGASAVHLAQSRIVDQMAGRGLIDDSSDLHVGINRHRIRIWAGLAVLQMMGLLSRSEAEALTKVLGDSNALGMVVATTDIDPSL
# [2] = molecular target: T1, major capsid protein P1 of cystovirus ɸ6 (in virion-derived particles) (cystovirus ɸ6); experiment: cryo-EM structure
binder,measurement,setting,value
B1,binding,[1],binds
same,binding,[2],binds

# — doi:10.1101/2025.07.23.666269 (bioRxiv, 2025)
